Consider one compound from article PMC11118514, “Eminent Antimicrobial Peptide Resistance in Zymomonas mobilis: A Novel Advantage of Intrinsically Uncoupled Energetics” (Antibiotics, 2024).

The data set is described as follows: Langmuir-Blodgett compression isotherms of model membrane with peptides. Details: species or system Zymomonas mobilis. The conditions noted are these: Z. mobilis phospholipid model membrane + peptide, 30 ± 1 °C.

Structures are written as SMILES. Where a SMILES comes first, the peptide text is derived from it.

Take `CC[C@H](C)[C@H](NC(=O)CNC(=O)[C@H](CCCCN)NC(=O)[C@H](Cc1ccc(O)cc1)NC(=O)[C@H](CS)NC(=O)[C@@H](NC(=O)[C@H](CCCCN)NC(=O)[C@H](Cc1ccccc1)NC(=O)[C@H](CS)NC(=O)[C@H](Cc1c[nH]c2ccccc12)NC(=O)[C@@H](N)CCCNC(=N)N)C(C)C)C(=O)N[C@@H](CS)C(=O)N[C@@H](Cc1ccc(O)cc1)C(=O)N[C@@H](CCCCN)C(=O)N[C@@H](CCCCN)C(=O)N[C@@H](CS)C(=O)N[C@@H](CCCCN)C(=O)O` [RP556] (H-RWCFKVCYKGICYKKCK-OH; N-terminus and C-terminus assumed): the “Mma (limiting area per molecule, Aπ→0)” value (extrapolated from linear part of π-A isotherm (25–40 mN/m), membranes alone 70.6) is on record as 85.3 Å/molecule. In addition, the “π Collapse” value (membranes alone 46.4) was found to be 45 mN/m.
